Test results taken from patent US20060270601A1.
No constants are given. Whether binding was seen depends on the method and setting. In cells and extracts the contact can be indirect. Some results given as binding are weak or reduced against the parent protein; the word gives no strength. Tags and fused reporters may be left off the sequences shown.

The chains behind the UniProt entries cited, without tags or fusion partners. Where a name states a change or a piece, a line headed by the entry shows the natural chain unless it says otherwise.
UniProt P98170: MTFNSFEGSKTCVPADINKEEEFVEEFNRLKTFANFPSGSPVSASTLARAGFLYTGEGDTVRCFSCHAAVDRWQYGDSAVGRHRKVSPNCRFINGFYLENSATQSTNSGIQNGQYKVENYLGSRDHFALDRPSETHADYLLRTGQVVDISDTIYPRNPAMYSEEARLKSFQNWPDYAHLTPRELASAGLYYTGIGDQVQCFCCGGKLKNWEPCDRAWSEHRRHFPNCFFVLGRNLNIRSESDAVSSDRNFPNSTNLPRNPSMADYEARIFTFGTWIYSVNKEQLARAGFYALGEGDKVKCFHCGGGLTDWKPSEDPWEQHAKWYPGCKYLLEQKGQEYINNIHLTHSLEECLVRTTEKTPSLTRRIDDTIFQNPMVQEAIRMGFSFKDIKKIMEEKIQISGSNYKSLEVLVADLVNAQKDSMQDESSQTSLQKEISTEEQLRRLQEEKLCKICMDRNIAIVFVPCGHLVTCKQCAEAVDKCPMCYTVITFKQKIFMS

Columns and labels:
[1] = biological target: Bir3 domain of XIAP protein fused to GST (Homo sapiens (Human)) (UniProt P98170); test: co-precipitation in COS-7 cells (Example 2, as referred to in the description)
[2] = biological target: Bir3 domain of XIAP protein fused to GST (Homo sapiens (Human)) (UniProt P98170); test: co-precipitation with glutathione beads from co-transfected COS-7 cells, Western blot

YGPSLRLLAPPGAVKGTGQEHQGQGCH (peptide, not shown: small tags and cut ends) [myc-tagged ARTS C-terminus (27 C-terminal amino acids of ARTS protein with a myc tag)]
binding [1]: binds | binding [2]: binds
